Experimental data published in PMC10800354.
Read-outs that look alike come from different tables or passages of the source. Results are given in words; binding and its absence hold for the method and conditions named. Binding seen in cells or lysates may run through a third protein. Here binding means that the protein was enriched with, or labelled near, the bait; the list need not be complete. One block for each molecule: values may come before it.

Chains of the proteins cited; added tags and fusions are not shown.
UniProt Q9HCJ5: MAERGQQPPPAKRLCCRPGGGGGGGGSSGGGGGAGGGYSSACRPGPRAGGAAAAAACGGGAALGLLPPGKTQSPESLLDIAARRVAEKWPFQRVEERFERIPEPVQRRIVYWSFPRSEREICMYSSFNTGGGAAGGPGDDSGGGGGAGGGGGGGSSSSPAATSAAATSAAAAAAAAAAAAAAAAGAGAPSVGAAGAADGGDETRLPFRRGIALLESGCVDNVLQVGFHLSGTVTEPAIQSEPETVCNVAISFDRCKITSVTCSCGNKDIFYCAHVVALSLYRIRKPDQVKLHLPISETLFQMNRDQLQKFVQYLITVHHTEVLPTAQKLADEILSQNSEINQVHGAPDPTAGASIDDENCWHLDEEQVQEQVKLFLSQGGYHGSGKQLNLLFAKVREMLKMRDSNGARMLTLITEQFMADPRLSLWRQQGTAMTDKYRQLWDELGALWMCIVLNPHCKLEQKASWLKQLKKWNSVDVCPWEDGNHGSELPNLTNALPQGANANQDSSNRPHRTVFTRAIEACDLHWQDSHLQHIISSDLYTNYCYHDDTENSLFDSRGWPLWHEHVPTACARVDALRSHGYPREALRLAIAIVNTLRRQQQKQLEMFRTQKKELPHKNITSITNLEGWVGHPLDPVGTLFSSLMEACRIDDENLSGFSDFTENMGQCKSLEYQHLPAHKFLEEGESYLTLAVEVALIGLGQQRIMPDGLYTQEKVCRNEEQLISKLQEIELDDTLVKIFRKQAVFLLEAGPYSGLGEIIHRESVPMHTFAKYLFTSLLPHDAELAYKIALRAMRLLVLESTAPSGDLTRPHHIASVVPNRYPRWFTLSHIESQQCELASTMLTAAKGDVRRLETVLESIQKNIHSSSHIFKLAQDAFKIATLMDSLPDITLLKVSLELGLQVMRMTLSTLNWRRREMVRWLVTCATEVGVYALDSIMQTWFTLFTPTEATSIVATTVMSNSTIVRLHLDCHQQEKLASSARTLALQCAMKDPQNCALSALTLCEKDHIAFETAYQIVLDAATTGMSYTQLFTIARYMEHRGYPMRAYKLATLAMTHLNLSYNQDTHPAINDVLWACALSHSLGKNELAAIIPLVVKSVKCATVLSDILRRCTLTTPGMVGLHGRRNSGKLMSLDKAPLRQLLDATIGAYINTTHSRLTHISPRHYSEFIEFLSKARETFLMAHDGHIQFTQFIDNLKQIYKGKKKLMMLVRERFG

How the values were obtained:
[1] = molecular target: T1, N-acetyltransferase 10 (NAT10), endogenous (human (endogenous in SCC-15)) (UniProt Q9H0A0); assay: affinity purification with mass spectrometry; co-IP of endogenous NAT10 from SCC-15 cells with anti-NAT10 antibody, gel slice digested, LC-MS/MS; proteins found in the IgG and NAT10 KD control groups subtracted
T1 sequence: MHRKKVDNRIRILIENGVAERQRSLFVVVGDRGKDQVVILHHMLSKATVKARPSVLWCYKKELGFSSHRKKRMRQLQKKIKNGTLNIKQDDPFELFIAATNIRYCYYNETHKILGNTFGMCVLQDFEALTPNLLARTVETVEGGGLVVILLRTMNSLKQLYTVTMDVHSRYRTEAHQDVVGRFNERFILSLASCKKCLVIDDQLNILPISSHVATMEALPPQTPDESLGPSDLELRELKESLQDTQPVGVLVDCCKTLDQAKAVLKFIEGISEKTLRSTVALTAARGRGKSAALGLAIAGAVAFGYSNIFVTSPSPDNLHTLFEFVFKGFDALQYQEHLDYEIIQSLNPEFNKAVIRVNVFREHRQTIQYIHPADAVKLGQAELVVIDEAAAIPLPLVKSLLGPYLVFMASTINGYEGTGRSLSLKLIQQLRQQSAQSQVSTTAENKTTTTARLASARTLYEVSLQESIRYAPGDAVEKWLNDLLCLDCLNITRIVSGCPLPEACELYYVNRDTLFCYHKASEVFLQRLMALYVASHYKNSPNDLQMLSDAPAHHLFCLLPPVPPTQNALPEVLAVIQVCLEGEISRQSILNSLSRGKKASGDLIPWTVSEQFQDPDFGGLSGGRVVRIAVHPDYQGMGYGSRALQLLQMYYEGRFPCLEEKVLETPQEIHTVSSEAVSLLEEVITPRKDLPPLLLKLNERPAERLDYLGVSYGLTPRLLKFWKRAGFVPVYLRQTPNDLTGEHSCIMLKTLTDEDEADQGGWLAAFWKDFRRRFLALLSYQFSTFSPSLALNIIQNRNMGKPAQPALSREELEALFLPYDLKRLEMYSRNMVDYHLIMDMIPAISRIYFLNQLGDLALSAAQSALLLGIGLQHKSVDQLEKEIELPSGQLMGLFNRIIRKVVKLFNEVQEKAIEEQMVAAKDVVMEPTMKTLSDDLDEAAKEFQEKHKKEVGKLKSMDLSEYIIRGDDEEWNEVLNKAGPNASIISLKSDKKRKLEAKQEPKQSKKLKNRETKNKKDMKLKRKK

[2] = molecular target: T1, N-acetyltransferase 10 (NAT10), endogenous (human (endogenous in SCC-15)); assay: as above; remark: listed apart in the source

binding [1]: binds
Molecule: zinc finger SWIM domain-containing protein 6 (ZSWIM6), endogenous (from UniProt Q9HCJ5 1-1215)

binding [2]: binds
B1: RNA-binding protein with serine-rich domain 1 (RNPS1), endogenous (protein, UniProt Q15287 1-305)
chain: MDLSGVKKKSLLGVKENNKKSSTRAPSPTKRKDRSDEKSKDRSKDKGATKESSEKDRGRDKTRKRRSASSGSSSTRSRSSSTSSSGSSTSTGSSSGSSSSSASSRSGSSSTSRSSSSSSSSGSPSPSRRRHDNRRRSRSKSKPPKRDEKERKRRSPSPKPTKVHIGRLTRNVTKDHIMEIFSTYGKIKMIDMPVERMHPHLSKGYAYVEFENPDEAEKALKHMDGGQIDGQEITATAVLAPWPRPPPRRFSPPRRMLPPPPMWRRSPPRMRRRSRSPRRRSPVRRRSRSPGRRRHRSRSSSNSSR
